Results published in US20260097076A1 (ELPIS BIOPHARMACEUTICALS, published 2026).
No constants are given. Whether binding was seen depends on the method and setting. Some binding calls cover weakened binding; strength is not graded here.

By UniProt entry, the sequences of proteins in these tests, tags left out.
UniProt Q02223: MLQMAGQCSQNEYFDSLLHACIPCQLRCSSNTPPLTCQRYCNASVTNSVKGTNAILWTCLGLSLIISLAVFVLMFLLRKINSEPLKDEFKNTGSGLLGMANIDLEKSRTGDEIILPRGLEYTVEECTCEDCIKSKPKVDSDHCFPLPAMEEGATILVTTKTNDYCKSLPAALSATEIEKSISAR

Key:
[1] = substrate: B Cell Maturation Antigen (BCMA) on cells (UniProt Q02223); test: flow cytometry, 200 nM scFv on H929, MM1.S and RPMI8226 cells (endogenous BCMA)
[2] = substrate: B Cell Maturation Antigen (BCMA) on cells (UniProt Q02223); test: flow cytometry, 200 nM scFv on BCMA/CHOK1 and CHOK1 cells
[3] = substrate: B Cell Maturation Antigen (BCMA) on cells (UniProt Q02223); test: flow cytometry, legend of FIG. 1
[4] = substrate: B Cell Maturation Antigen (BCMA) on cells (UniProt Q02223); test: flow cytometry, 200 nM scFv on BCMA/CHOK1 cells, anti-His biotin/streptavidin Alexa Fluor 647 detection, median fluorescence
[5] = substrate: B Cell Maturation Antigen (BCMA) on cells (UniProt Q02223); test: flow cytometry, 200 nM scFv on RPMI8226 cells (endogenous BCMA), median fluorescence
[6] = substrate: B Cell Maturation Antigen (BCMA) on cells (UniProt Q02223); test: flow cytometry, 200 nM scFv on H929 cells (endogenous BCMA), median fluorescence
[7] = substrate: B Cell Maturation Antigen (BCMA) on cells (UniProt Q02223); test: flow cytometry, 200 nM scFv on MM1.S cells (endogenous BCMA), median fluorescence

Binder | binding [1] | binding [2] | binding [3] | binding [4] | binding [5] | binding [6] | binding [7]
BC-02 (anti-BCMA antibody in scFv format) (scFv, Human scFv from mRNA display, VH-(G4S)3-VL, expressed in E. coli periplasm, His-purified; not shown: C-terminal flag and 6xHis tag) scFv: QVQLVQSGGGVVQPGGSLRLSCAASGFTFSSYGMHWVRQAPGKVLEWVAFIRYDGSNKYYADSVKGRFTISRDNSKNTLYLQMNSLRAEDTAVYYCAKDWDYYDSSGYYPDALGIWGQGTMVTVSSGGGGSGGGGSGGGGSEIVLTQSPSSLSASVGDRVTITCQASQDISNYLNWYQQKPGKAPKLLIYDASNLETGVPSRFSGSGSGTDFTFTISSLQPEDIATYYCQQYDNLPFTFGPGTKVDIK | binds | binds | binds | – | – | – | –
BC-06 (anti-BCMA antibody in scFv format) (scFv, Human scFv from mRNA display, VH-(G4S)3-VL, expressed in E. coli periplasm, His-purified; also called clone BC-06; not shown: C-terminal flag and 6xHis tag) scFv: EVQLVESGGGLVQPGRSLRLSCAASGFTFDDYAMHWVRQAPGKGLEWVSGISWNSGSIGYADSVKGRFTISRDNAKNSLYLQMNSLRAEDTALYYCAKVQPPGAFDIWGQGTMVTVSSGGGGSGGGGSGGGGSDIQLTQSPSFLSASVGDRVSITCRSTQGISSYLGWYQQKPGKAPKLLIYATSTLQSGVPSRFSGSGSGTEFTLTISSLQPEDFATYYCQQLYSFGQGTKLEIK | binds | binds | binds | binds | binds | binds | binds
BC-08 (anti-BCMA antibody in scFv format) (scFv, Human scFv from mRNA display, VH-(G4S)3-VL, expressed in E. coli periplasm, His-purified; not shown: C-terminal flag and 6xHis tag) scFv: QVQLVQSGGGVVQPGRSLRLSCAASGFTFSSYAMHWVRQAPGKGLEWVAVISYDGSNKYYADSVKGRFTISRDNAENSVYLQMNSLRAEDTAVYYCARDEHQVVPNYRFDFWGQGSQVTVSSGGGGSGGGGSGGGGSQLVLTQPPSASGTPGQRVTISCSGSGSNIGSNDVSWYQQIPGTASKLLIYWNDQRPSGVPDRFSGSKSGTSASLAISGLQSEDEADYYCAAWDDSLNGWVFGGGTKLTVL | binds | binds | binds | binds | binds | binds | binds

Next, values leading:

binding [1] | binding [2] | binding [3] | binding [4] | binding [5] | binding [6] | binding [7] | Binder
binds | binds | binds | binds | binds | binds | binds | BC-05 (anti-BCMA antibody in scFv format) (scFv, Human scFv from mRNA display, VH-(G4S)3-VL, expressed in E. coli periplasm, His-purified; not shown: C-terminal flag and 6xHis tag) scFv: QMQLVQSGGGVVQPGGSLRLSCAASGFTFSSYGMHWVRQAPGKGLEWVAFIRYDGSNKYYADSVKGRFTISRDNSKNTLYLQMNSLRAEDTAVYYCAKDWEDPLYYYDTPFWGQGTLVTVSSGGGGSGGGGSGGGGSVIWMTQSPSSVSASVGDIITITCQASQDINNYLNWYQLKPGKAPKLLIYDASNVETGVPSRFSGSGSGTDFTFTISSLQPEDTATYYCQQYDKLPYTFGQGTKLEIK
binds | binds | binds | binds | binds | binds | binds | BC-07 (anti-BCMA antibody in scFv format) (scFv, Human scFv from mRNA display, VH-(G4S)3-VL, expressed in E. coli periplasm, His-purified; not shown: C-terminal flag and 6xHis tag) scFv: EVQLVESGGGLVQPGRSLRLSCAASGFTFDDYAMHWVRQAPGKGLEWVSGISWNSGSIGYADSVKGRFTISRDNAKNSLYLQMNSLRAEDTALYYCAKVQSPGAFDIWGQGTMVTVSSGGGGSGGGGSGGGGSDIQLTQSPSFLSASVGDRVSITCRSTQGISSYLGWYQQKPGKAPKLLIYATSTLQSGVPSRFSGSGSGTEFTLTISSLQPEDFATYYCQQLYSFGQGTKLEIK
